Data taken from article PMC10868759.

Key:
Assay in all cases: affinity purification with mass spectrometry; GFP-Trap A beads with 5 mg total protein extract of plants expressing YFP-CESA6 or LTi6b-GFP (control), overnight at 4°C; extraction buffer 100 mM Tris-HCl pH 7.5, 150 mM NaCl, 0.2% Nonidet P-40; washes with 150 mM and 500 mM NaCl; on-bead trypsin digestion, LC-MS/MS
[1] = target: T1, YFP-CESA6 (Arabidopsis thaliana) (UniProt Q94JQ6)
T1 sequence: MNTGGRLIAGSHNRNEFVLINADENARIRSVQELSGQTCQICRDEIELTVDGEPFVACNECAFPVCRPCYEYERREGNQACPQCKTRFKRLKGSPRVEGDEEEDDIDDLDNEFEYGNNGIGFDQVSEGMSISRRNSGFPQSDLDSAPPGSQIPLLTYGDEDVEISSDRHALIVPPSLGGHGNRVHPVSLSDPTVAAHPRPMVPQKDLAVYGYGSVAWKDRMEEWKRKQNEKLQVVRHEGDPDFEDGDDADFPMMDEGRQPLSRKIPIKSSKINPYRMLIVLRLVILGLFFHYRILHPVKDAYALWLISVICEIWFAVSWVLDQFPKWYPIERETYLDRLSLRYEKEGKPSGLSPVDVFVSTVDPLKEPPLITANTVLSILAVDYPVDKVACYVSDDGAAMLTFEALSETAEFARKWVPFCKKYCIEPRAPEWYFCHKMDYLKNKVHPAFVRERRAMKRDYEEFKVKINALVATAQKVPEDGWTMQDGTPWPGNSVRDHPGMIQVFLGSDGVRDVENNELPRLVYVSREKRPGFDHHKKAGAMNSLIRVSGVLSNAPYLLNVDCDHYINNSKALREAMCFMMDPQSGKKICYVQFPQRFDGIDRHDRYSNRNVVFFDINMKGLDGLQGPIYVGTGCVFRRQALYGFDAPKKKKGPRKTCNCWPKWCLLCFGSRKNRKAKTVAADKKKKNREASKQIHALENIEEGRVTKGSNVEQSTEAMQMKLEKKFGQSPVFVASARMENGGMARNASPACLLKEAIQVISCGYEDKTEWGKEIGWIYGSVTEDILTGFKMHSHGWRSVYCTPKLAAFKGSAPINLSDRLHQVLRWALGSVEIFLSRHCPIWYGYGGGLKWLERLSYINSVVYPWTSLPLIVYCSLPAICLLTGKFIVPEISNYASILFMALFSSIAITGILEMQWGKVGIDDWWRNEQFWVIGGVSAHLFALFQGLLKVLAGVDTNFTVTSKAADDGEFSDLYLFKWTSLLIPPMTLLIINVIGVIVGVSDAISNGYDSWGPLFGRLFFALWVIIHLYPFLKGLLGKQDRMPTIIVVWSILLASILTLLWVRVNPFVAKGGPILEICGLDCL

[2] = target: T2, LTi6b-GFP (Arabidopsis thaliana) (UniProt Q9ZNS6)
T2 sequence: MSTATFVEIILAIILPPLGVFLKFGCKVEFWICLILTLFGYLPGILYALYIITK

[3] = target: T3, YFP-CESA6 (Arabidopsis thaliana), Q94JQ6; settings: remark: other sources report otherwise
T3 chain: T1 sequence

B1: TIP GROWTH … 1 (enzyme, UniProt Q52T38 1-620)
chain: MSSEIEVVEEIQSNPKENGESSSKGIEEESLKNDVYTAAAYGDLEKLHRLVECEGSSVSEPDALGYYALQWSALNNRVAVAQYLIEHGGDVNATDHTGQTALHWSAVRGAIQVAELLLQEGARVDATDMYGYQATHVAAQYGQTAFLCHVVSKWNADPDVPDNDGRSPLHWAAYKGFADSIRLLLFLDAYRGRQDKEGCTPLHWAAIRGNLEACTVLVQAGKKEDLMITDKTGLTPAQLAAEKNHRQVSFFLGNARSLLEKRCDGSSPLGRLSKLGLAPVLWIMILLLLLVYTNSVVLASNLPKLTTGIGALAWLGFILATAGLFLFYRCSRKDPGYIRMNIHDPQTMKDDEPLLKIELNNPALLAGNWTQLCATCKIIRPLRAKHCSTCDRCVEQFDHHCPWVSNCVGKKNKWEFFLFLLLEVLAMLITGGVTLARVLSDPSAPSSFGAWMSHVASNHVGALSFLLVEFCLFFSVAVLTVIQASQISRNITTNEMANALRYSYLRGPGGRFRNPYDLGCRRNCSDFLVKGYNEDIECHEEDATQRPEGISMMQMQRNPNLQNGNGHVAIDVNPTHNSQSAHVHSANCSHSHNSKSKSDNVPLGLGLGLSRNPTRPVVSP
[1]
  binding: binds
[2]
  binding: no binding

B2: KORRIGAN, Q38890 1-621 (protein)
chain: MYGRDPWGGPLEINTADSATDDDRSRNLNDLDRAALSRPLDETQQSWLLGPTEQKKKKYVDLGCIIVSRKIFVWTVGTLVAAALLAGFITLIVKTVPRHHPKTPPPDNYTIALHKALKFFNAQKSGKLPKHNNVSWRGNSGLQDGKGETGSFYKDLVGGYYDAGDAIKFNFPMAYAMTMLSWSVIEYSAKYEAAGELTHVKELIKWGTDYFLKTFNSTADSIDDLVSQVGSGNTDDGNTDPNDHYCWMRPEDMDYKRPVTTCNGGCSDLAAEMAAALASASIVFKDNKEYSKKLVHGAKVVYQFGRTRRGRYSAGTAESSKFYNSSMYWDEFIWGGAWMYYATGNVTYLNLITQPTMAKHAGAFWGGPYYGVFSWDNKLAGAQLLLSRLRLFLSPGYPYEEILRTFHNQTSIVMCSYLPIFNKFNRTNGGLIELNHGAPQPLQYSVNAAFLATLYSDYLDAADTPGWYCGPNFYSTSVLRDFARSQIDYILGKNPRKMSYVVGFGTKYPRHVHHRGASIPKNKVKYNCKGGWKWRDSKKPNPNTIEGAMVAGPDKRDGYRDVRMNYNYTEPTLAGNAGLVAALVALSGEEEATGKIDKNTIFSAVPPLFPTPPPPPAPWKP
[3]
  binding: no binding

These are yes or no findings as the source states them, for the method shown. Binding seen in cells or lysates may run through a third protein. A yes stands for co-enrichment or nearness to the bait. Other partners may have been found. For part of these data: A no says only that the protein was not detected with the bait. Tags and fused reporters may be left off the sequences shown.
